Test results taken from publication doi:10.1101/2021.12.21.473709.
No constants are given. Whether binding was seen depends on the method and setting. In cells and extracts the contact can be indirect. A result given as binding can be weak or reduced; the word gives no strength. Tags and fused reporters may be left off the sequences shown.

The chains behind the UniProt entries cited, without tags or fusion partners. Where a name states a change or a piece, a line headed by the entry shows the natural chain unless it says otherwise.
UniProt Q8L4M1: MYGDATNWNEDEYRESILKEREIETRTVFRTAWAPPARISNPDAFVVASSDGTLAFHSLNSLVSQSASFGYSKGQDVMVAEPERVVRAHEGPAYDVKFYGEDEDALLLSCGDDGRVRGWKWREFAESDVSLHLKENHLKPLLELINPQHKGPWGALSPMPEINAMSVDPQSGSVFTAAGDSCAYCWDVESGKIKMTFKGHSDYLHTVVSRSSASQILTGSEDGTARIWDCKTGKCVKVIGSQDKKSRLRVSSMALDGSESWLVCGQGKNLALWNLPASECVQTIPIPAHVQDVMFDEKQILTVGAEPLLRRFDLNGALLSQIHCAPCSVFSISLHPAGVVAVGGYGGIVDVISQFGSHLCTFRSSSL

Key:
Assay in all cases: split reporter
[1] = molecular target: T1, AFP1, split YFP fusion (Arabidopsis) (UniProt Q9LQ98)
T1 sequence: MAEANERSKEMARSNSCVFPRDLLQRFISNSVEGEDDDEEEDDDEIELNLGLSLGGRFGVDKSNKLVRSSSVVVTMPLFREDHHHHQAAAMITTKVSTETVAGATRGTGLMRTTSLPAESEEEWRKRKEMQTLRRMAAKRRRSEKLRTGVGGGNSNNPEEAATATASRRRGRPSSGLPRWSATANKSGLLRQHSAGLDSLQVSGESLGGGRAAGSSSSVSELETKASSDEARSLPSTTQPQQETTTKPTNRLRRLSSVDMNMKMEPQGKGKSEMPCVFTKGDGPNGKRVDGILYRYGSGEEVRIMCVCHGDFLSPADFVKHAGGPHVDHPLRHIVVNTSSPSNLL

[2] = molecular target: T2, AFP2, split YFP fusion (Arabidopsis) (UniProt Q9LMX5)
T2 sequence: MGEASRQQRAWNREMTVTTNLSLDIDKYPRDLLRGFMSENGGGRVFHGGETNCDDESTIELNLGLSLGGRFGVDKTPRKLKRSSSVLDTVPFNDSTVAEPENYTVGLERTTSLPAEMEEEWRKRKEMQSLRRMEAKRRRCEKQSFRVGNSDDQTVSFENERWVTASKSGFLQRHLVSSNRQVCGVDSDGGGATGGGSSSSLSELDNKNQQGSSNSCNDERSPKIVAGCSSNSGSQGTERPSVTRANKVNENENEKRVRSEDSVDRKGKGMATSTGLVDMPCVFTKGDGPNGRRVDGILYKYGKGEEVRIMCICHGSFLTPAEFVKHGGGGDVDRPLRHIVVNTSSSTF

[3] = molecular target: T3, ABI5, split YFP fusion (Arabidopsis) (UniProt Q9SJN0)
T3 sequence: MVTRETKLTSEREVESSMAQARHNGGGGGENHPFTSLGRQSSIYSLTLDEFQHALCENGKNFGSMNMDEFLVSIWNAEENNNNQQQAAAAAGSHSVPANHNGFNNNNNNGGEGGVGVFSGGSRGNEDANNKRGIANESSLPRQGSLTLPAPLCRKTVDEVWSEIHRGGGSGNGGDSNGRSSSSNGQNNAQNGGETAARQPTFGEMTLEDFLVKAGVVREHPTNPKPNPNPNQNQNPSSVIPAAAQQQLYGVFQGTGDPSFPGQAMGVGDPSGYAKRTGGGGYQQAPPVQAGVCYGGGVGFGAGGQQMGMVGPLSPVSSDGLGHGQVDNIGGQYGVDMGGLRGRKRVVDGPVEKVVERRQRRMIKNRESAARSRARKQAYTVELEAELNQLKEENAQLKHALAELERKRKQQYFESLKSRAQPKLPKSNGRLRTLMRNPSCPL

binding [1]: binds weakly
binding [2]: binds weakly
binding [3]: binds weakly
Substance: DWA1, split YFP fusion (from UniProt Q8L4M1)
